Experimental findings from PubChem BioAssay AID2685 (National Center for Advancing Translational Sciences (NCATS), 2010) are described below.

What is called AC50 is the midpoint of the concentration-response curve, whichever way the signal moves. A lower AC50 goes with activity at low concentration.

A short description of the experiment: qHTS Assay for Lipid Storage Modulators in Drosophila S3 Cells.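 As to cell number change: cells counted by Cell Tracker Red CMTPX staining in the red channel.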 The settings on record: BODIPY lipid droplet fluorescence, 18-24 h; for cell number change: measured here: cell count max response, cells fed with added oleic acid. Summed up:
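Laser-scanning cytometry quantifies lipid droplet accumulation (500–530 nm total intensity; droplet/cell object ratio) in oleic acid-fed (400 uM added) Drosophila S3 cells treated with a concentration series. 20 uM Triacsin C defined 100% inhibition.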

[1] abbreviates: measured here: cell number channel AC50, cells fed with added oleic acid.
The mark [2] stands for this setting: measured here: lipid fluorescence (Fed channel) AC50, cells fed with added oleic acid.

This is one part of the list. Further columns of the screen follow, without active or inactive calls. Compounds called inactive in the main read-out are mostly missing here. Potencies come from curve fits of mixed quality, noted in brackets.

`CN(C)CCCn1cnc2c(c1=N)C(c1ccccc1)c1ccc3ccccc3c1O2` (stereo not drawn): the cell number change is -37.4%. Also, the AC50 under setting [1] is 29.1 µM [falling, single point]. The AC50 under setting [2] is 32.6 µM [falling, single point].
On to `CCOC(=O)CSc1nnc(C)c(=O)[nH]1`, for which the cell number change was -246%. In addition, the AC50 under setting [1] is 25.9 µM [falling, partial curve]. Besides, the AC50 under setting [2] was 23.1 µM [falling, partial curve].
With `Cc1cccc(CSCCNC(=O)CN2C(=O)c3ccccc3S2(=O)=O)c1`, the cell number change was 6.58%. Besides, the AC50 under setting [2] is 1.78 µM [falling, partial curve].
For the compound `Cc1cccc(C)c1OCC(=O)Nc1cccc(S(=O)(=O)N2CCCC2)c1`, the cell number change was 32%. In addition, the AC50 under setting [1] is 2.59 µM [rising, full curve, poor fit].
For `O=C(COc1ccc(S(=O)(=O)N2CCCC2)cc1Cl)Nc1ccc2c(c1)OCO2`, the cell number change was -0.539%.
Turning to `Cc1cc(C(=O)CSc2nc3ccccc3c(=O)n2C)c(C)n1CC1CCCO1` (stereo not drawn), the cell number change was -55.3%. Moreover, the AC50 under setting [1] was 0.92 µM [falling, full curve]. The AC50 under setting [2] was 1.84 µM [falling, full curve].
As for `CCOC(=O)C1=C(C)NC(=O)NC1c1cccc(O)c1` (stereo not drawn), the AC50 under setting [2] was 2.91 µM [falling, single point].
Turning to `CC1=CN2C(=N)/C(=C/c3ccco3)C(=O)N=C2S1`, the cell number change was 6.79%. Further, under setting [2], the AC50 is 18.4 µM [rising, single point].
With `CCOC(=O)C1=C(c2ccc(OC)cc2)C(=O)c2ccccc2C1=O`, the cell number change is -47.2%. Moreover, under setting [1], the AC50 was 13 µM [falling, partial curve]. For the same compound, the AC50 under setting [2] was 5.17 µM [falling, full curve, poor fit].
Consider `CN(C(=O)COc1ccc(Cl)cc1Cl)c1nnc(C23CC4CC(CC(C4)C2)C3)s1`, for which the cell number change came out at 0.576%. The AC50 under setting [2] was 2.91 µM [rising, single point].
With `COc1ccc(OC)c(CCNC(=O)C(C)n2nc(C)c3c(C)n(-c4ccc(C)cc4)nc3c2=O)c1` (stereo not drawn), the cell number change is -24.4%. Moreover, under setting [2], the AC50 was 29.1 µM [falling, single point].
Take `COc1ccccc1CNc1ncnc2nc[nH]c12`: the cell number change was found to be 0.711%. The AC50 under setting [2] is 2.59 µM [rising, partial curve].
As to `CCSC1=NCN(CCCC(=O)O)CN1`, the cell number change is -197%. For the same compound, the AC50 under setting [2] is 6.51 µM [rising, single point].
Turning to `c1coc(-c2nn3c(-c4ccco4)nnc3s2)c1`, the cell number change was -19.5%. In addition, the concentration at half-maximal activity (AC50) under setting [2] was 0.00517 µM [rising, full curve].
Consider `CCn1c(=O)[nH]c2cc(C(=O)Nc3cc(C)cc(C)c3)ccc2c1=O`, for which the cell number change is -9.63%. For the same compound, the AC50 under setting [2] was 16.4 µM [falling, single point].
Consider `COCCCn1c(C(C)C)nc2oc3cc(OC)ccc3c(=O)c2c1=O`, for which the cell number change was found to be 1.81%. Also, the AC50 under setting [2] was 5.17 µM [rising, single point].
For `CN(C(=O)c1ccc2c(c1)CCO2)C(C)(C)C`, the cell number change was -26%. The AC50 under setting [1] is 3.26 µM [falling, full curve, poor fit].
`CC1(c2nnc(-c3ccc(F)cc3)o2)CC(c2c(Cl)cccc2Cl)=NO1` (stereo not drawn): the cell number change was 20.3%. The AC50 under setting [2] is 2.06 µM [rising, full curve].
Regarding `CCCCCC(=O)Nc1c(-c2ccc(OC)cc2)c(=O)c2ccccc2n1C`, the cell number change was 38.8%.
`CCCNC(=O)COC(=O)c1ccccc1OCc1ccc(Cl)cc1`: the cell number change was found to be 106%. Further, the AC50 under setting [1] was 18.4 µM [rising, single point].
As for `COc1ccc(-c2[nH]ncc2/C=N\NC(=O)c2ccc(C(C)(C)C)cc2)cc1OC`, the cell number change was -33.3%. In addition, under setting [1], the AC50 is 29.1 µM [falling, single point]. Besides, under setting [2], the AC50 was 14.6 µM [rising, partial curve].
Consider `CCOC(=O)c1c(N)sc2c1CCSC2`, for which the cell number change came to 116%. Also, the AC50 under setting [1] is 7.31 µM [rising, partial curve].
As to `CC(=O)Nc1ccc2nc(NC(=O)CCc3ccccc3)sc2c1`, the cell number change is -23.8%. Besides, the AC50 under setting [2] was 0.00517 µM [falling, full curve, poor fit].
In the case of `COc1ccc(C(=O)Nc2cc(C(=O)NCCc3ccccc3)ccc2Cl)cc1`, the cell number change came out at 40.1%. Under setting [1], the AC50 is 8.2 µM [rising, partial curve, poor fit]. Further, under setting [2], the AC50 is 2.31 µM [rising, partial curve].
As for `O=C(CSc1ncc(C(F)(F)F)cc1Cl)NCC1CCCO1` (stereo not drawn), the cell number change came to 9.79%. Also, the AC50 under setting [2] is 6.51 µM [rising, single point].
